Experimental data from PMC9206684.
These are yes or no findings as the source states them, for the method shown. In cells and extracts the contact can be indirect. Some entries that bind do so weakly or less than the wild type. Sequences can lack the tags named with a protein.

Target: HA-IGF2BP2 / Myc-IGF2BP2 (human), Q9Y6M1
Experiment: co-IP; HA-IGF2BP2 and Myc-IGF2BP2 coexpressed in HEK293T cells, with or without Ct-OATP1B3
Conditions: remark: other sources report otherwise

binding: binds
B1: HA-IGF2BP2 / Myc-IGF2BP2, Q9Y6M1 1-599 (protein)
chain: MMNKLYIGNLSPAVTADDLRQLFGDRKLPLAGQVLLKSGYAFVDYPDQNWAIRAIETLSGKVELHGKIMEVDYSVSKKLRSRKIQIRNIPPHLQWEVLDGLLAQYGTVENVEQVNTDTETAVVNVTYATREEAKIAMEKLSGHQFENYSFKISYIPDEEVSSPSPPQRAQRGDHSSREQGHAPGGTSQARQIDFPLRILVPTQFVGAIIGKEGLTIKNITKQTQSRVDIHRKENSGAAEKPVTIHATPEGTSEACRMILEIMQKEADETKLAEEIPLKILAHNGLVGRLIGKEGRNLKKIEHETGTKITISSLQDLSIYNPERTITVKGTVEACASAEIEIMKKLREAFENDMLAVNQQANLIPGLNLSALGIFSTGLSVLSPPAGPRGAPPAAPYHPFTTHSGYFSSLYPHHQFGPFPHHHSYPEQEIVNLFIPTQAVGAIIGKKGAHIKQLARFAGASIKIAPAEGPDVSERMVIITGPPEAQFKAQGRIFGKLKEENFFNPKEEVKLEAHIRVPSSTAGRVIGKGGKTVNELQNLTSAEVIVPRDQTPDENEEVIVRIIGHFFASQTAQRKIREIVQQVKQQEQKYPQGVASQRSK
